Assay results from publication PMC9570199.

The chains behind the UniProt entries cited, without tags or fusion partners. Where a name states a change or a piece, a line headed by the entry shows the natural chain unless it says otherwise.
UniProt O00214: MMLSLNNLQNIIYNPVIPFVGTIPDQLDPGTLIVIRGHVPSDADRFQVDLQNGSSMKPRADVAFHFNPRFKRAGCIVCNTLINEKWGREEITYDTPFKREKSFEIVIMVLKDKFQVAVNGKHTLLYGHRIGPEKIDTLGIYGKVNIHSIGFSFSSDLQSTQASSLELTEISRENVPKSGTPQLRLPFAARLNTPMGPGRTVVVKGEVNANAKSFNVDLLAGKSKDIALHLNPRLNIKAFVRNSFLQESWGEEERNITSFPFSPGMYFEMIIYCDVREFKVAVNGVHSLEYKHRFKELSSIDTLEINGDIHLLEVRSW
UniProt P17931: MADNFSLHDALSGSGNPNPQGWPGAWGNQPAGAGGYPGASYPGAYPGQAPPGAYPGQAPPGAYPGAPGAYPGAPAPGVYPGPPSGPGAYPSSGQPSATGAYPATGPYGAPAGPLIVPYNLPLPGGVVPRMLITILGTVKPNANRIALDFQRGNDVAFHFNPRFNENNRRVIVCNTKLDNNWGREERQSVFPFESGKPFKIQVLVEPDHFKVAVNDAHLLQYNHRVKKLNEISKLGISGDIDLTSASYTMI
UniProt Q10589: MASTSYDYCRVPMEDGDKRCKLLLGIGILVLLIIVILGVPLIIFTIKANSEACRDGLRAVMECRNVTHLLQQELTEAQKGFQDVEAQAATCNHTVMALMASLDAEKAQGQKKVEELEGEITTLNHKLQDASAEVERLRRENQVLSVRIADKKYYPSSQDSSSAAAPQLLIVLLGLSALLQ

What was measured:
Test in all cases: pull-down; GST-tagged galectins immobilised on glutathione-agarose beads, incubated with recombinant BST2; eluted, SDS-PAGE, silver stain and western blot with rabbit anti-BST2 polyclonal antibody; both purified
GST-tagged Gal-8 = GST-tagged Gal-8 (UniProt O00214)
[1] = target: GST-tagged long isoform of Gal-9 (GST-Gal9L) (UniProt O00182)
[2] = target: GST-tagged Gal-3 (GST-Gal3) (UniProt P17931)

With “Recombinant BST2 protein (Bone Marrow Stromal Cell Antigen 2) (from UniProt Q10589)” the binding (GST-tagged Gal-8) was “binds”, the binding [1] was “binds” and the binding [2] was “no binding”.

Results are given in words; binding and its absence hold for the method and conditions named. For part of these data: A result given as binding can be weak or reduced; the word gives no strength.
